Test results taken from article PMC5425256.
Results are given in words; binding and its absence hold for the method and conditions named. For some assays here: In cells and extracts the contact can be indirect. Some entries that bind do so weakly or less than the wild type. For some assays here: Sequences can lack the tags named with a protein.

By UniProt entry, the sequences of proteins in these tests, tags left out.
UniProt Q9NQU5: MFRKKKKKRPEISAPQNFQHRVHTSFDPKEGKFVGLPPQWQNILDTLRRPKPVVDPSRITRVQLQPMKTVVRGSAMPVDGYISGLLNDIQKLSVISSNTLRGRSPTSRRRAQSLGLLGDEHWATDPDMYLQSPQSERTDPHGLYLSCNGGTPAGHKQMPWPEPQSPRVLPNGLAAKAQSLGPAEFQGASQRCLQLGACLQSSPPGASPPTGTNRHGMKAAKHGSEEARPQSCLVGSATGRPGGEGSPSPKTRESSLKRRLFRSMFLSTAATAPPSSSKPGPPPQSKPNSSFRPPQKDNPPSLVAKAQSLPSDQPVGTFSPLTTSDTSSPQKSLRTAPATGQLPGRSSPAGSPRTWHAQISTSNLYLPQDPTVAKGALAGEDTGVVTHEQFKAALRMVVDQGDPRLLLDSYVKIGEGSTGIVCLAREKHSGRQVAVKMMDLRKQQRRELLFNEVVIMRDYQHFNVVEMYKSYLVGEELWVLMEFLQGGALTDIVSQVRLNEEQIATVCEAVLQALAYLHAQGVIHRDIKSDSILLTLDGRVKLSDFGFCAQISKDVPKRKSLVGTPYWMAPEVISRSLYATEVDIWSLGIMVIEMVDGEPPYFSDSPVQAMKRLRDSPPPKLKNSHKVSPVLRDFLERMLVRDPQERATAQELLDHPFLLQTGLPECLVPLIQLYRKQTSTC
UniProt P61586: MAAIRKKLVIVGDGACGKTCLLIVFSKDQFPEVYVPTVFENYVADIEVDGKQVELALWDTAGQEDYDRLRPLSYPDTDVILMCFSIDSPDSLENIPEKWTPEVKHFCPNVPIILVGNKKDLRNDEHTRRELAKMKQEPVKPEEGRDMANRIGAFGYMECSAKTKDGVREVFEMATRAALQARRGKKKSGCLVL
UniProt P08134: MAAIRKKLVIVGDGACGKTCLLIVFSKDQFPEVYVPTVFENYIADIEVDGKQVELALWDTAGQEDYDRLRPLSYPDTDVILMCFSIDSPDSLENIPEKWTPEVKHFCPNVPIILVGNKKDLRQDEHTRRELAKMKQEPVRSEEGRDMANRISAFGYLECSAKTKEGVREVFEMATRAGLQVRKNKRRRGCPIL

How the values were obtained:
[1] = target: T1, GFP-RhoD (pCB6 GFP-RhoD WT) (mouse) (UniProt P97348); experiment: co-IP
T1 sequence: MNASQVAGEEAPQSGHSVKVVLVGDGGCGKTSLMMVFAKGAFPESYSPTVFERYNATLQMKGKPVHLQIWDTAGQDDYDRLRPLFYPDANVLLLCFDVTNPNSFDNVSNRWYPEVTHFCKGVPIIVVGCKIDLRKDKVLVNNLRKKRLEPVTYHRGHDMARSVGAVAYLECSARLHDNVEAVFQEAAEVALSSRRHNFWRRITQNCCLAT

[2] = target: recombinant GST-Pak6 (from pMW-GST-Pak6, E. coli) (human) (UniProt Q9NQU5); experiment: pull-down; both purified
[3] = target: recombinant GST-Pak6 (from pMW-GST-Pak6, E. coli) (human) (UniProt Q9NQU5); experiment: pull-down; only the target purified

Row | binding [2] | binding [3] | Substance | other results
1 |  |  | Myc-Pak6 (pCB6-Myc-Pak6) (from UniProt Q9NQU5 1-681) (enzyme) | binding [1]: binds
2 | no binding |  | recombinant His-RhoA loaded with GTPγS (from UniProt P61586 1-193) | 
3 |  | no binding | RhoA from HeLa cell lysates (from UniProt P61586 1-193) | 
4 | no binding |  | recombinant His-RhoC loaded with GTPγS (from UniProt P08134 1-193) | 
5 |  | no binding | RhoC from HeLa cell lysates (from UniProt P08134 1-193) | 
